# In the supplement of paper PMC8960247:
# Structures can show the parent of a compound that is named as a salt. The data scatter; read single values as rough.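 The cells are immortalized human renal angiomyolipoma cells carrying an empty vector, so TSC2 stays lost. Viability was read by a luminescent ATP assay and normalized to vehicle-treated wells on each plate, in low-serum medium where TSC2-rescued cells do not grow.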
# System: 621-102 (TSC2-deficient)
# Assay: relative viability vs DMSO (fraction); higher = less cytotoxic
# Settings: serum: 0.1% FBS, 72 h
Compound,relative viability (0.0128 nM),relative viability (0.064 nM),relative viability (0.32 nM),relative viability (1.6 nM),relative viability (8 nM),relative viability (40 nM),relative viability (200 nM),relative viability (1000 nM),relative viability (5000 nM)
O=C(CN1C(=O)C2(CCCC2)NC[C@H]1c1cc(F)cc(F)c1)Nc1ccc2c(c1)C[C@@]1(C2)C(=O)Nc2ncccc21 [MK 3207 hydrochloride],0.862,0.871,0.799,0.752,0.842,0.771,0.795,0.916,0.733
O=C(O)CC[C@H]1CC[C@@](c2cc(F)ccc2F)(S(=O)(=O)c2ccc(Cl)cc2)CC1 [MK-0752],0.865,0.887,0.79,0.851,0.865,0.665,0.712,0.746,0.674
CC(C)C[C@H](NC(=O)CNC(=O)c1cc(Cl)ccc1Cl)B(O)O [MLN2238],0.882,0.823,0.779,0.68,0.658,0.552,0.153,0.0322,0.0258
COc1cc(Nc2ncc3c(n2)-c2ccc(Cl)cc2C(c2c(F)cccc2OC)=NC3)ccc1C(=O)O [MLN8237],0.927,0.845,0.89,0.854,0.836,0.304,0.0373,0.0368,0.0367
CC(C)C[C@H](NC(=O)CNC(=O)c1cc(Cl)ccc1Cl)B1OC(=O)C(CC(=O)O)(CC(=O)O)O1 [MLN9708],0.869,0.843,0.812,0.728,0.802,0.302,0.0119,0.0127,0.0131
S=C(NCc1ccc2c(c1)OCO2)N1CCN(c2ncnc3c2oc2ccccc23)CC1 [MP-470],0.583,0.744,0.852,0.697,0.846,0.89,0.905,0.764,0.273
Nc1ccccc1NC(=O)c1ccc(CNC(=O)OCc2cccnc2)cc1 [MS-275],0.634,0.689,0.759,0.791,0.674,0.709,0.727,0.605,0.221
COC(=O)C1=C(C)NC(C)=C(C(=O)OCCN2CCN(C(c3ccccc3)c3ccccc3)CC2)C1c1cccc([N+](=O)[O-])c1 (stereo not given) [Manidipine 2HCl],0.634,0.901,0.936,0.858,0.737,0.765,0.584,0.372,0.0383
COC(=O)C1=C(C)NC(C)=C(C(=O)OCCN2CCN(C(c3ccccc3)c3ccccc3)CC2)C1c1cccc([N+](=O)[O-])c1 (stereo not given) [Manidipine],0.748,0.706,0.736,0.744,0.751,0.742,0.747,0.687,0.712
CNCCCC12CCC(c3ccccc31)c1ccccc12 [Maprotiline HCl],0.901,0.912,0.948,0.965,0.895,0.816,0.79,0.806,0.642
Cc1ccc(NC(=O)c2ccc(CN3CCN(C)CC3)cc2)cc1Nc1nc(-c2cccnc2)cs1 [Masitinib (AB1010)],1.03,0.996,0.865,0.864,0.892,0.735,0.818,0.904,0.862
Cc1[nH]c(=O)c(C#N)cc1-c1ccncc1 [Milrinone],0.561,0.742,0.68,0.678,0.566,0.602,0.55,0.577,0.575
O=C1c2c(O)ccc(O)c2C(=O)c2c(NCCNCCO)ccc(NCCNCCO)c21 [Mitoxantrone HCl],0.792,0.787,0.787,0.337,0.0242,0.0361,0.0106,0.00801,0.00764
NC(=O)c1ncn([C@@H]2O[C@H](CO)[C@@H](O)[C@H]2O)c1O [Mizoribine],0.722,0.79,0.858,0.903,0.841,0.789,0.817,0.427,0.868
N=C(N)NC(=N)N1CCOCC1 [Moroxydine HCl],1.09,0.354,0.427,1.09,0.403,0.187,0.577,0.555,0.614
CC1(C)CNc2cc(NC(=O)c3cccnc3NCc3ccncc3)ccc21 [Motesanib Diphosphate],0.918,0.874,0.922,0.835,0.807,0.702,0.792,0.675,0.648
FC(F)(F)c1ccc(/C=C/c2nc(COc3ccc(CCCCn4ccnn4)cc3)co2)cc1 [Mubritinib (TAK 165)],0.992,0.955,0.952,1,0.867,1.02,0.889,0.64,0.663
CC(C)(C)c1[nH]cnc1/C=c1\[nH]c(=O)/c(=C/c2ccccc2)[nH]c1=O [NPI-2358],0.809,0.786,0.793,0.82,0.279,0.0319,0.0147,0.0166,0.0259
CC(C)(Cc1ccc2ccccc2c1)NC[C@@H](O)COc1cccc(Cl)c1C#N [NPS-2143],1.01,1.19,1.08,0.905,0.684,0.691,0.747,0.0769,0.0116
O=c1cc(N2CCOCC2)oc2c(-c3cccc4c3sc3ccccc34)cccc12 [NU7441],1.07,1.01,1.14,1.01,0.722,0.568,0.58,0.264,0.0121
Nc1ncnc2c1c(-c1cccc(OCc3ccccc3)c1)cn2C1CC(CN2CCCC2)C1 (stereo not given) [NVP-ADW742],0.922,0.947,0.34,0.845,0.745,0.712,0.0356,0.0216,0.024
CCNC(=O)c1noc(-c2cc(C(C)C)c(O)cc2O)c1-c1ccc(CN2CCOCC2)cc1 [NVP-AUY922],0.856,0.972,0.758,0.377,0.0164,0.00924,0.0141,0.00707,0.00583
CCNC(=O)c1cc2c(-c3cc(OCCN4CCCC4)c(Cl)cc3Cl)nc(N)nc2s1 [NVP-BEP800],0.879,0.876,0.751,0.75,0.723,0.644,0.375,0.085,0.0285

# 3 entries from above, as tab-separated lines:
Compound	relative viability (0.0128 nM)	relative viability (0.064 nM)	relative viability (0.32 nM)	relative viability (1.6 nM)	relative viability (8 nM)	relative viability (40 nM)	relative viability (200 nM)	relative viability (1000 nM)	relative viability (5000 nM)
COc1cc(Nc2ncc3c(n2)-c2ccc(Cl)cc2C(c2c(F)cccc2OC)=NC3)ccc1C(=O)O [MLN8237]	0.927	0.845	0.89	0.854	0.836	0.304	0.0373	0.0368	0.0367
N=C(N)NC(=N)N1CCOCC1 [Moroxydine HCl]	1.09	0.354	0.427	1.09	0.403	0.187	0.577	0.555	0.614
CC(C)(Cc1ccc2ccccc2c1)NC[C@@H](O)COc1cccc(Cl)c1C#N [NPS-2143]	1.01	1.19	1.08	0.905	0.684	0.691	0.747	0.0769	0.0116

# Further records

Compound,relative viability (0.0128 nM),relative viability (0.064 nM),relative viability (0.32 nM),relative viability (1.6 nM),relative viability (8 nM),relative viability (40 nM),relative viability (200 nM),relative viability (1000 nM),relative viability (5000 nM)
Cc1ccc(C(=O)Nc2cccc(C(F)(F)F)c2)cc1Nc1nc(-c2cccnc2)nc2c1cnn2C [NVP-BHG712],1.17,1.15,1.22,1.16,1.08,0.908,0.224,0.344,0.0119
Fc1cc(-c2cccc3ncc(-c4cnn(C5CCNCC5)c4)nc23)cc(F)c1CN1CCOCC1 [NVP-BSK805 dihydrochloride],0.806,0.836,0.774,0.884,0.82,0.831,0.787,0.667,0.0911
COc1cc(N2CCC(N3CCN(C)CC3)CC2)ccc1Nc1ncc(Cl)c(Nc2ccccc2S(=O)(=O)C(C)C)n1 [NVP-TAE684],0.861,0.93,0.801,0.702,0.799,0.8,0.576,0.014,0.00532
COc1ccccc1N1CCN(CC(O)COc2cccc3ccccc23)CC1 (stereo not given) [Naftopidil Dihydrochloride],1.39,1.54,1.72,1.23,0.647,0.776,1.01,1.48,0.807
COc1ccccc1N1CCN(CC(O)COc2cccc3ccccc23)CC1 (stereo not given) [Naftopidil],0.603,0.561,0.544,0.63,0.594,0.558,0.545,0.49,0.317
c1ccc2c(CC3=NCCN3)cccc2c1 [Naphazoline HCl],0.769,0.856,0.863,0.792,0.814,0.775,0.836,0.8,0.79
OC(CNCC(O)C1CCc2cc(F)ccc2O1)C1CCc2cc(F)ccc2O1 (stereo not given) [Nebivolol],0.747,0.806,0.735,0.725,0.716,0.704,0.672,0.649,0.138
CN(C)C(=O)Oc1cccc([N+](C)(C)C)c1 [Neostigmine bromide],0.779,0.69,0.688,0.64,0.574,0.587,0.532,0.359,0.265
CCOc1cc2ncc(C#N)c(Nc3ccc(OCc4ccccn4)c(Cl)c3)c2cc1NC(=O)/C=C/CN(C)C [Neratinib (HKI-272)],0.954,0.9,0.894,0.886,0.726,0.807,0.825,0.578,0.0119
Cc1cn(-c2cc(NC(=O)c3ccc(C)c(Nc4nccc(-c5cccnc5)n4)c3)cc(C(F)(F)F)c2)cn1 [Nilotinib (AMN-107)],0.895,0.826,0.733,0.748,0.831,0.984,0.768,0.293,0.012
COC(=O)C1=C(C)NC(C)=C(C(=O)OCC(C)C)C1c1ccccc1[N+](=O)[O-] (stereo not given) [Nisoldipine],1.24,1.39,1.45,1.25,0.716,0.94,0.98,1.12,0.136
CNC(=C[N+](=O)[O-])NCCSCc1csc(CN(C)C)n1 [Nizatidine],0.859,0.896,0.847,0.87,0.862,0.726,0.798,0.758,0.615
CO[C@@H]1[C@@H](OC(N)=O)[C@@H](O)[C@H](Oc2ccc3c(O)c(NC(=O)c4ccc(O)c(CC=C(C)C)c4)c(=O)oc3c2C)OC1(C)C [Novobiocin Sodium],0.99,1.05,0.947,0.958,1,0.883,0.945,0.193,0.162
COc1cccc2cc(-c3nc([C@H]4CC[C@H](C(=O)O)CC4)n4ncnc(N)c34)[nH]c12 [OSI-027],0.73,0.712,0.681,0.71,0.743,0.739,0.741,0.799,0.489
C#Cc1cccc(Nc2ncnc3cc(OCCOC)c(OCCO)cc23)c1 [OSI-420],1,1.02,1.61,1.61,0.665,1.55,0.53,0.0806,0.0707
O=C(Nc1ccc(OC(F)(F)F)cc1)c1sccc1NCc1ccnc2ccccc12 [OSI-930],0.844,0.655,0.758,0.872,0.791,0.845,0.917,0.575,0.0159
COC1=CC(c2cc3ccccc3[nH]2)=N/C1=C\c1[nH]c(C)cc1C [Obatoclax Mesylate],0.865,0.777,0.366,0.8,0.74,0.521,0.0436,0.0112,0.0124
Cc1cc2c(s1)Nc1ccccc1N=C2N1CCN(C)CC1 [Olanzapine],1.07,0.856,0.636,0.964,0.919,0.198,0.0464,0.0366,0.0431
CN(C)CC/C=C1/c2ccccc2COc2ccc(CC(=O)O)cc21 [Olopatadine HCl],0.528,0.745,0.73,0.206,0.357,0.534,0.765,0.788,0.817
COC(=O)N1CCN(Cc2cccc(NC(=O)Nc3ccc(C)nc3)c2F)CC1 [Omecamtiv mecarbil],0.46,0.677,0.639,0.89,0.642,0.701,0.677,0.74,0.577
Cc1cc(C(C)(C)C)c(O)c(C)c1CC1=NCCN1 [Oxymetazoline hydrochloride],0.781,0.686,0.608,0.225,0.635,0.643,0.563,0.596,0.601
O=C(O)/C=C/c1ccc(Cn2ccnc2)cc1 [Ozagrel],0.839,0.875,0.872,0.862,0.819,0.746,0.744,0.681,0.611
